Data taken from article PMC10008575.
These are yes or no findings as the source states them, for the method shown. In cells and extracts the contact can be indirect. Binding calls can cover weak binding; strength is not graded here.

Target: T1, Stomatin-like protein 2 (STOML2) (human (endogenous in PANC1 and BxPC3)) (UniProt Q9UJZ1)
T1 sequence: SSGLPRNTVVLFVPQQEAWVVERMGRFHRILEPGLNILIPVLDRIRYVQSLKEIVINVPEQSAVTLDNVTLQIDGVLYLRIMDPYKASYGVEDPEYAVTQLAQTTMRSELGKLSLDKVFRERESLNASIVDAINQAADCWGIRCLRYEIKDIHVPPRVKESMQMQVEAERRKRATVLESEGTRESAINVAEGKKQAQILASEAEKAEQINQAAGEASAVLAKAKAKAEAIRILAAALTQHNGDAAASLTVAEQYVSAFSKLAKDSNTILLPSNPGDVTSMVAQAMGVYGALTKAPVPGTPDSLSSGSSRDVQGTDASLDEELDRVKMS
Assay: co-IP; PANC1 and BxPC3 cells lysed in modified RIPA buffer; lysates mixed with protein A/G agarose bead-conjugated STOML2 antibody or IgG for 2 h at room temperature; Western blot

binding: binds
Substance: PARL (presenilin associated rhomboid like) (human (endogenous in PANC1 and BxPC3)) (enzyme)
